# Measured values: article PMC12891040
# These are yes or no findings as the source states them, for the method shown. Binding seen in cells or lysates may run through a third protein. Binding can be weak; no strength is given.
# Biological target: T1, Arabidopsis nuclear protein GLK1-cEYFP (Arabidopsis) (UniProt Q9SIV3)
# T1 sequence: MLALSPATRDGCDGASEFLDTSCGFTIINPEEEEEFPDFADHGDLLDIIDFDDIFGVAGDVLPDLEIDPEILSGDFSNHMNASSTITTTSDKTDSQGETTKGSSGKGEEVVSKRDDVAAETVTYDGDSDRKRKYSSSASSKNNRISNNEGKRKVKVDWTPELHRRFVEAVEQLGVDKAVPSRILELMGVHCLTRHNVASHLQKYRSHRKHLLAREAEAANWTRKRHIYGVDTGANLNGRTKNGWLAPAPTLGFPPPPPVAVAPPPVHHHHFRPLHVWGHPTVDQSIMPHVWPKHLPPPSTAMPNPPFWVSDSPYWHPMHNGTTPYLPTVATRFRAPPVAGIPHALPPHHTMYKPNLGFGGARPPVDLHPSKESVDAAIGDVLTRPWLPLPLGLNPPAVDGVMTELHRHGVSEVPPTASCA
# Assay: split reporter; BiFC with nEYFP and cEYFP fusions transiently coexpressed in N. benthamiana leaf epidermal cells; confocal microscopy
substance,measurement,value
Arabidopsis BPG4-nEYFP,binding,binds
